Test results as given in paper PMC11099055.
No constants are given. Whether binding was seen depends on the method and setting. Binding seen in cells or lysates may run through a third protein. Some binding calls cover weakened binding; strength is not graded here.

Sequences of proteins named here, by UniProt entry; tags and fusion partners are left off.
UniProt O95071: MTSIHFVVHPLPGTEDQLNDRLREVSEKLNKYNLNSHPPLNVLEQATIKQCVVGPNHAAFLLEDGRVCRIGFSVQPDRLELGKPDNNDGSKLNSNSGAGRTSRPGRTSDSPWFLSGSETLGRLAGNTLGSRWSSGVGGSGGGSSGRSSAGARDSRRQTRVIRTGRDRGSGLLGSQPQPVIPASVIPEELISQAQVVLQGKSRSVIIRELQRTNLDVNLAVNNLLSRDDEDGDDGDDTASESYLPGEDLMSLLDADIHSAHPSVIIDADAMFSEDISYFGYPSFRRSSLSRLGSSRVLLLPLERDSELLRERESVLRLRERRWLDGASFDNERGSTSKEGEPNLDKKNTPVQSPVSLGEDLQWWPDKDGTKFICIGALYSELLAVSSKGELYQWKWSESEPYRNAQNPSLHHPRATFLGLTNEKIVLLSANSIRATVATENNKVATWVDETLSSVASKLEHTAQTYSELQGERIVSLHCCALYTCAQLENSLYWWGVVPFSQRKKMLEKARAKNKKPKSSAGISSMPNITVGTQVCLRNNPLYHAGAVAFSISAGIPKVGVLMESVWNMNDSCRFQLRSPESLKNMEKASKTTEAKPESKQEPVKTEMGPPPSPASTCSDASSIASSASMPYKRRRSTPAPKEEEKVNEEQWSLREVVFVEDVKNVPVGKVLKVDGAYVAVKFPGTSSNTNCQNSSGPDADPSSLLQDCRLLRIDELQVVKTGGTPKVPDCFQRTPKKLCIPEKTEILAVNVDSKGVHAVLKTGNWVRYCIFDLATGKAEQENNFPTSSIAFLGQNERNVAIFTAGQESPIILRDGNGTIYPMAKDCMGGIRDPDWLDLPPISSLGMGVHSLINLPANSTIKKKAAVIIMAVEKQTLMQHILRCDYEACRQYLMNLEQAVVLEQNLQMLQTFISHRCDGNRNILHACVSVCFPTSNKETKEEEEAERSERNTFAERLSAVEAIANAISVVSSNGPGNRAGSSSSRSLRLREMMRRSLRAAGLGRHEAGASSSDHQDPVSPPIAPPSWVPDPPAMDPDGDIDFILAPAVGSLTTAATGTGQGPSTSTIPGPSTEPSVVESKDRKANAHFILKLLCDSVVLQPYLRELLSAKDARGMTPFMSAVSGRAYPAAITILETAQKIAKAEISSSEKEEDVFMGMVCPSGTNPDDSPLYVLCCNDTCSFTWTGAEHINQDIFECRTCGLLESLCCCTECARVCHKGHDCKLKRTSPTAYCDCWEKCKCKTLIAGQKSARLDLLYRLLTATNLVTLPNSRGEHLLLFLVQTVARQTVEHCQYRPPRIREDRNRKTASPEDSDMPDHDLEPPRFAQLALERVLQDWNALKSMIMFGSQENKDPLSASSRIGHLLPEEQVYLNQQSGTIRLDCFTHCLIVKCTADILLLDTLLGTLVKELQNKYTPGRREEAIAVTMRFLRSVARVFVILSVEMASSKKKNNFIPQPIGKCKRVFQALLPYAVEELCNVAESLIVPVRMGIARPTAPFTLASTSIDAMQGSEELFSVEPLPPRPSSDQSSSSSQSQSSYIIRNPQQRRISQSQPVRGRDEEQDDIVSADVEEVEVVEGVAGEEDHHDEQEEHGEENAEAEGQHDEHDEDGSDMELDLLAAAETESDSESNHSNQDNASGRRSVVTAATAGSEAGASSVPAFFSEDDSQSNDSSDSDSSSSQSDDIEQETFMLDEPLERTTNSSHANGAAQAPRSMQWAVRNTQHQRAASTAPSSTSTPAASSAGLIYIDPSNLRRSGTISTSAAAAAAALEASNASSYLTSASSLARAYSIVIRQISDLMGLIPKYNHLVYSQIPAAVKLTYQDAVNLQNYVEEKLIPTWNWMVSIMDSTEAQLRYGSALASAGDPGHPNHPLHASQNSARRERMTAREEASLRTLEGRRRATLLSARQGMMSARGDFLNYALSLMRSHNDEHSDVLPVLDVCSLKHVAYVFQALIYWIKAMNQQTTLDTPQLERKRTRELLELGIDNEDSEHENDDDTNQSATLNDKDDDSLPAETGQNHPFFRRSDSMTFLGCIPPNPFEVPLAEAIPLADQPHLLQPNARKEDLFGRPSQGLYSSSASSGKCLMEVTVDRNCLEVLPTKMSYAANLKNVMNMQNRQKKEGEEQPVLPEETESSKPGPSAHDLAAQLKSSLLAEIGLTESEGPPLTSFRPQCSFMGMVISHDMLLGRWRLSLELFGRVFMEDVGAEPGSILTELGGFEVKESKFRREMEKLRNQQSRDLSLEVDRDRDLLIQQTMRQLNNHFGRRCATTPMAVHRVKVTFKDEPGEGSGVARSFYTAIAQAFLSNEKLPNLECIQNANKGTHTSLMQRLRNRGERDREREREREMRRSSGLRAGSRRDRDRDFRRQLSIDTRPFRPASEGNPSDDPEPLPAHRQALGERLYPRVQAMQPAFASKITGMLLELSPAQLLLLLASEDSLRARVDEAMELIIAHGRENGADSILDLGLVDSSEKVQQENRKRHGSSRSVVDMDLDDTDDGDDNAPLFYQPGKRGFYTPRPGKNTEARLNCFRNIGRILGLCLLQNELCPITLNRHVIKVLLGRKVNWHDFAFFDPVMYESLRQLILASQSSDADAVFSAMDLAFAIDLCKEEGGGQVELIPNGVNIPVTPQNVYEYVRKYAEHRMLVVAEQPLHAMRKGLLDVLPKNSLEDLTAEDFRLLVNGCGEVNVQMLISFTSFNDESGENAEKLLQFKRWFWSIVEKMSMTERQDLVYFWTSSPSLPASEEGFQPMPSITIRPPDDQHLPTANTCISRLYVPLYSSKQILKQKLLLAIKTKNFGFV

Biological target: ubiquitin-protein ligase E3 module N-recognition 5 (UBR5) (human (endogenous in AsPC-1-G/R and PANC-1-G/R)) (UniProt O95071)
Test: co-IP; lysates of AsPC-1-G/R and PANC-1-G/R cells; magnetic beads and primary reagent added to the supernatant, shaken overnight at low temperature; washed three times; western blot

B1: O-GlcNAase (OGA) (enzyme, UniProt O60502 1-916)
chain: MVQKESQATLEERESELSSNPAASAGASLEPPAAPAPGEDNPAGAGGAAVAGAAGGARRFLCGVVEGFYGRPWVMEQRKELFRRLQKWELNTYLYAPKDDYKHRMFWREMYSVEEAEQLMTLISAAREYEIEFIYAISPGLDITFSNPKEVSTLKRKLDQVSQFGCRSFALLFDDIDHNMCAADKEVFSSFAHAQVSITNEIYQYLGEPETFLFCPTEYCGTFCYPNVSQSPYLRTVGEKLLPGIEVLWTGPKVVSKEIPVESIEEVSKIIKRAPVIWDNIHANDYDQKRLFLGPYKGRSTELIPRLKGVLTNPNCEFEANYVAIHTLATWYKSNMNGVRKDVVMTDSEDSTVSIQIKLENEGSDEDIETDVLYSPQMALKLALTEWLQEFGVPHQYSSRQVAHSGAKASVVDGTPLVAAPSLNATTVVTTVYQEPIMSQGAALSGEPTTLTKEEEKKQPDEEPMDMVVEKQEETDHKNDNQILSEIVEAKMAEELKPMDTDKESIAESKSPEMSMQEDCISDIAPMQTDEQTNKEQFVPGPNEKPLYTAEPVTLEDLQLLADLFYLPYEHGPKGAQMLREFQWLRANSSVVSVNCKGKDSEKIEEWRSRAAKFEEMCGLVMGMFTRLSNCANRTILYDMYSYVWDIKSIMSMVKSFVQWLGCRSHSSAQFLIGDQEPWAFRGGLAGEFQRLLPIDGANDLFFQPPPLTPTSKVYTIRPYFPKDEASVYKICREMYDDGVGLPFQSQPDLIGDKLVGGLLSLSLDYCFVLEDEDGICGYALGTVDVTPFIKKCKISWIPFMQEKYTKPNGDKELSEAEKIMLSFHEEQEVLPETFLANFPSLIKMDIHKKVTDPSVAKSMMACLLSSLKANGSRGAFCEVRPDDKRILEFYSKLGCFEIAKMEGFPKDVVILGRSL
binding: binds
